Test results reported in PubChem BioAssay AID504467 (National Center for Advancing Translational Sciences (NCATS), 2011).
Screen size: about 330,000 compounds; about 7,700 (2.3%) were called active. This list was built around the results that the source calls inconclusive (neither active nor inactive); the mix of calls is not that of the screen. Calls come from the whole dose curve; as a rule, active = well fitted inhibition curve with a large enough effect; inconclusive = small, poorly fitted or top-dose-only effect, or effect the other way; inactive = flat fitted curve, though single readings scatter. Where the call is inconclusive, the potency comes from a doubtful curve fit.

experiment: qHTS screen for small molecules that inhibit ELG1-dependent DNA repair in human embryonic kidney (HEK293T) cells expressing luciferase-tagged ELG1; details: HEK293T ELG1-luciferase reporter, luminescence, 16 h, DNA damage induced by 5-fluorouridine; activity change, negative = inhibition: at 46.1 µM (top of the series); note: nearly all actives have a fitted effect of over 55% in size
Outline: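 Luminescence from the luciferase reporter, measured 30 min after ONE-Glo reagent at room temperature, was the read-out. Beforehand, 2,000 cells per well were exposed for 16 hr at 37 °C to 5-fluorouridine together with compound or vehicle.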
% is set by controls: 0 for no effect and ±100 for the full control effect; potency is the fitted concentration of half-maximal effect.

**Q.** For `CCOC(=O)c1c(OCCO)nn(-c2ccc(Cl)cc2)c1N`, which “activity change, negative = inhibition” value is on record?
**A.** Its value is inactive: -9.82%.

**Q.** For `COc1ccc(C)cc1Nc1n[n+](-c2ccccc2)c(-c2c(Cl)cccc2Cl)s1`, which “activity change, negative = inhibition” value is on record?
**A.** The value was inactive: -14.7%.

**Q.** For `Cc1ccc(NC(=O)CSc2nnc(CCCCCNC(=O)OC(C)(C)C)o2)c(C)c1`, which Potency is on record?
**A.** The Potency was inconclusive: 20.6 µM [inhibitor, partial curve, poor fit].

**Q.** With `COCCn1c(C)cc(C(=O)CSc2nnc3ccccn23)c1C` as the compound, how does the Potency read?
**A.** Its Potency is inconclusive: 0.517 µM [activator, full curve].

**Q.** Which “activity change, negative = inhibition” value does the source give for `C/C(CC(=O)Nc1cc(C)ccn1)=N\NC(=O)c1ccc(C)cc1` here?
**A.** Its value is inactive: 24.2%.

**Q.** For `CCOc1ccccc1NC(=O)COC(=O)c1cccc(-c2ccc(OC(C)=O)cc2)c1`, which “activity change, negative = inhibition” value is on record?
**A.** The value was inactive: -9.92%.

**Q.** With `O=C1/C(=C\Nc2ccc(Cl)cc2)CCN1c1ncccn1` as the compound, how does the Potency read?
**A.** The Potency was inconclusive: 9.2 µM [activator, partial curve].

**Q.** Which Potency does the source give for `CN(Cc1ccccc1)C(=O)CCC1CCN(C(=O)CCC(F)(F)F)CC1` here?
**A.** The Potency was inconclusive: 31.6 µM [activator, single point].

**Q.** For `COc1ccccc1CCC(=O)Nc1ncc(C)s1`, which Potency is on record?
**A.** Its Potency is inconclusive: 5.17 µM [activator, full curve, poor fit].

**Q.** Which Potency does the source give for `Cc1nn(-c2ccccc2)c(C)c1NC(=O)COc1ccc(Br)cc1Cl` here?
**A.** Its Potency is active: 23.1 µM.

**Q.** With `COc1ccc(O)c(/C=N/NC(=O)c2cccc(N3CCCC3=O)c2)c1` as the compound, how does the “activity change, negative = inhibition” value read?
**A.** Its value is inactive: -25.2%.

**Q.** For `CS(=O)(=O)N(Cc1nc(-c2ccc(F)cc2)no1)c1ccccc1Cl`, which Potency is on record?
**A.** The Potency was inconclusive: 29.1 µM [inhibitor, single point].

**Q.** With `CCOc1ccccc1NC(=O)CCC(=O)Nc1ccccc1OCC` as the compound, how does the Potency read?
**A.** Its Potency is inconclusive: 29.1 µM [activator, single point].

**Q.** With `COc1ccc(OC)c(-c2csc(NC(=O)c3ccc(OCC4CCCO4)cc3)n2)c1` (stereo not given) as the compound, how does the Potency read?
**A.** Its Potency is active: 6.51 µM.

**Q.** With `CC(=O)Nc1cc2nc(C)n(Cc3ccc([N+](=O)[O-])cc3)c2nc1C` as the compound, how does the “activity change, negative = inhibition” value read?
**A.** Its value is inactive: 3.52%.

**Q.** With `Cc1cc(C)cc(OCC(=O)Nc2ccc(N3CCCCC3)cc2)c1` as the compound, how does the Potency read?
**A.** Its Potency is inconclusive: 18.3 µM [activator, single point].

**Q.** With `Cc1cc(-c2ccc(Cl)cc2)n2nc(C)cc2n1` as the compound, how does the “activity change, negative = inhibition” value read?
**A.** The value was inactive: -6.24%.

**Q.** With `COC(=O)[C@@]1(Cc2ccc(F)cc2)[C@H]2c3cc(C(=O)N4CCCC4)n(CCc4ccc(O)c(O)c4)c3C[C@H]2CN1C(=O)c1ccccc1` as the compound, how does the “activity change, negative = inhibition” value read?
**A.** Its value is inactive: -28.4%.

**Q.** For `COc1ccccc1C(CNC(=O)C1COc2ccccc2O1)N1CCCC1` (stereo not given), which “activity change, negative = inhibition” value is on record?
**A.** The value was inactive: -0.445%.

**Q.** Which Potency does the source give for `COc1cccc(OC)c1NC(=O)CN(C)S(=O)(=O)c1ccc2c(c1)OCCO2` here?
**A.** The Potency was inconclusive: 0.0291 µM [activator, full curve].

**Q.** Which Potency does the source give for `COc1cccc(NS(=O)(=O)c2cc(C)sc2C)c1` here?
**A.** Its Potency is inconclusive: 1.84 µM [inhibitor, partial curve, poor fit].

**Q.** Which Potency does the source give for `Cc1ccc(S(=O)(=O)N2CCCCCC2)cc1C(=O)NCc1ccccn1` here?
**A.** Its Potency is inconclusive: 20.6 µM [inhibitor, single point].

**Q.** For `O=C(c1cccn2c(=O)c3cc(Cl)ccc3nc12)N1CCN(Cc2ccc3c(c2)OCO3)CC1`, which “activity change, negative = inhibition” value is on record?
**A.** Its value is inactive: -18%.

**Q.** Which Potency does the source give for `O=C(/C=C/c1cccc(Oc2ccccc2)c1)N1CCOCC1` here?
**A.** Its Potency is inconclusive: 9.2 µM [activator, partial curve].

**Q.** With `CN1CCN(NC(=O)c2ccc(Cl)c(S(=O)(=O)Nc3ccc(Cl)cc3)c2)CC1` as the compound, how does the “activity change, negative = inhibition” value read?
**A.** Its value is inactive: 14.1%.

**Q.** Which Potency does the source give for `CCc1cccc(C)c1NC(=O)CCCSc1nc2ccccc2s1` here?
**A.** Its Potency is inconclusive: 25.9 µM [inhibitor, partial curve, poor fit].

**Q.** For `CCN1C(=O)[C@H]2[C@@H](c3ccc(Cl)cc3)N3C(=O)CN(CC4CC4)C(=O)[C@@]3(C)[C@H]2C1=O`, which “activity change, negative = inhibition” value is on record?
**A.** The value was inactive: 7.16%.

**Q.** Which Potency does the source give for `O=C(Nc1nnc(SCc2ccc(F)cc2)s1)c1ccc2ncsc2c1` here?
**A.** Its Potency is inconclusive: 18.4 µM [activator, partial curve].

**Q.** Which Potency does the source give for `COCCn1c(C)cc(C(=O)CSc2nc(C)cc(C)c2C#N)c1C` here?
**A.** Its Potency is inconclusive: 25.9 µM [inhibitor, single point].

**Q.** With `CC[C@]12c3[nH]c4ccc(Cl)cc4c3CCN1C(=O)[C@@H](CC(=O)NC/C=C(\C)CCC=C(C)C)C[C@@H]2C(=O)N1CCN(C(=O)c2ccco2)CC1` as the compound, how does the Potency read?
**A.** The Potency was inconclusive: 23.1 µM [inhibitor, partial curve].

**Q.** With `CN1/C(=C\C(=O)Nc2ccc(Cl)cc2)C(C)(C)c2ccccc21` as the compound, how does the “activity change, negative = inhibition” value read?
**A.** Its value is inactive: -0.121%.

**Q.** For `O=C(c1ccccc1)C1CCN(C(=O)c2ccco2)CC1`, which “activity change, negative = inhibition” value is on record?
**A.** The value was inactive: -0.987%.

**Q.** For `O=C(NCCc1ccc(Cl)cc1)C1CCN(S(=O)(=O)c2ccc(Br)s2)CC1`, which Potency is on record?
**A.** The Potency was inconclusive: 23.1 µM [inhibitor, single point].

**Q.** Which Potency does the source give for `O=C(CSc1nc2ccccc2o1)NC(=O)NCc1ccccc1` here?
**A.** Its Potency is inconclusive: 14.1 µM [activator, partial curve, poor fit].

**Q.** For `O=S(=O)(NCc1cc(-c2ccccc2)no1)c1ccccc1Cl`, which “activity change, negative = inhibition” value is on record?
**A.** The value was inactive: -8.57%.

**Q.** With `Cc1ccccc1C(=O)NCCc1nnc(SCC(=O)Nc2nc(-c3ccccc3)cs2)n1C` as the compound, how does the Potency read?
**A.** The Potency was inconclusive: 29.1 µM [inhibitor, single point].

**Q.** For `CCO[C@H]1OC(C(=O)NCc2ccccc2)=C[C@@H](C2CCCCC2)[C@@H]1CCCO`, which “activity change, negative = inhibition” value is on record?
**A.** Its value is inactive: -0.807%.

**Q.** Which Potency does the source give for `Cc1cccc(NC(=O)CNC(=O)c2sc3ccccc3c2Cl)n1` here?
**A.** The Potency was inconclusive: 7.3 µM [activator, single point].

**Q.** Which Potency does the source give for `O=C(C1CC1)N1CCc2cc(Br)cc(S(=O)(=O)NC3CCCCC3)c21` here?
**A.** Its Potency is inconclusive: 18.4 µM [inhibitor, partial curve, poor fit].

**Q.** For `Cc1cc(C(=O)CN2C(=O)C(=O)N(Cc3ccco3)C2=O)c(C)n1CCc1ccccc1`, which “activity change, negative = inhibition” value is on record?
**A.** Its value is inactive: -9.67%.

**Q.** For `CN1CCC(=NNC(=O)c2ccco2)CC1`, which Potency is on record?
**A.** The Potency was inconclusive: 18.4 µM [activator, partial curve].

**Q.** For `O=C(CSc1nnc(Cc2ccccc2)n1C1CCCCC1)N1CCOCC1`, which Potency is on record?
**A.** Its Potency is inconclusive: 35.5 µM [activator, single point].

**Q.** For `COc1ccc(CNC(=O)CCCn2nc(C)c([N+](=O)[O-])c2C)cc1OC`, which activity change, negative = inhibition is on record?
**A.** The activity change, negative = inhibition was inconclusive: 3.79% [activator].

**Q.** For `CC(C)Oc1ccc(C(=O)NC(=S)Nc2ccc(Cl)c(C(=O)O)c2)cc1`, which Potency is on record?
**A.** Its Potency is inconclusive: 20.6 µM [activator, single point].

**Q.** Which Potency does the source give for `N=c1c(C(=O)NCCc2ccccc2)cc2c(=O)n3ccccc3nc2n1CC1CCCO1` (stereo not given) here?
**A.** The Potency was inconclusive: 0.092 µM [inhibitor, full curve, poor fit].
